Where “and” joins values, the source holds several entries; their conditions need not be identical. Equal values may be shown once. The list shows a part of the results. Shown are side measurements of this screen, not its main read-out; they come without a call. Most of these compounds were active or inconclusive in the main read-out, so they are no random draw. The note in brackets gives the kind of curve behind each potency; many fits are weak.
Assay: qHTS Assay to Find Inhibitors of Chronic Active B-Cell Receptor Signaling
Conditions: ABC-DLBCL IkBa-CBG/CBR reporter, luminescence ratio (green luciferase fused to IkBa over red control in TMD8 lymphoma cells), 4 h
Summary of the method: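 Doxycycline induced both beetle luciferases in TMD8 lymphoma cells; IKK-driven degradation limits the IkappaBalpha-fused green signal, while red luminescence normalises for cell number and nonspecific effects. Compounds tested up to 46 uM, 4 hrs.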

[1] = measured here: CBR red luminescence, cell number
[2] = measured here: IkBa-CBG green luminescence

Cc1ccc(OC(=O)c2cc3ccccc3o2)cc1
AC50 [1]: 0.411 µM [falling, partial curve, poor fit]

O=C1CSC(=S)N1N1C(=O)c2cccc([N+](=O)[O-])c2C1=O
AC50 [1]: 0.794 µM [rising, partial curve]

Cc1cc(SCC(=O)c2ccccc2)nc(=O)[nH]1
AC50 [1]: 7.08 µM [falling, partial curve]

O=C(Cc1ccc(Cl)cc1)Nc1ccc(-c2nnc(-c3ccco3)o2)cc1
AC50 [1]: 7.08 µM [rising, partial curve, poor fit]

Cc1ccccc1Nc1nnc(SCC2CCCCO2)s1 (stereo unspecified)
AC50 [1]: 32.6 µM [falling, single point]

O=C(COC(=O)CN1C(=O)C(=O)c2ccccc21)OCN1C(=O)c2ccccc2C1=O
AC50 [1]: 29.1 µM [rising, single point]

CN1CCN(C(=O)c2ccc3c(=O)n(-c4ccc(F)cc4)c(=S)[nH]c3c2)CC1
AC50 [1]: 12.6 µM [falling, partial curve, poor fit]

O=C(CSc1nnc(-c2ccccc2)c(-c2ccccc2)n1)NCc1ccco1
AC50 [2]: 18.4 µM [rising, partial curve, poor fit]

CCOc1cc(N2CCOCC2)c(OCC)cc1NC(=O)CN1CCCC(C)C1 (stereo unspecified)
AC50 [1]: 6.51 µM [rising, single point]

CSc1ccc(/C=C/C(=O)Nc2ccccc2)cc1
AC50 [1]: 1.41 µM [falling, partial curve]

CCOC(=O)c1ccc(N/C=C/C(=O)c2ccc(OC)cc2)cc1
AC50 [1]: 0.316 µM [falling, full curve]

N#Cc1cnc(NOCc2ccc(Cl)cc2)nc1
AC50 [1]: 15.8 µM [rising, partial curve, poor fit]

COCCNC(=O)C(c1ccc(C)o1)N(C(=O)c1snc(C(N)=O)c1N)c1cccc(C)c1 (stereo unspecified)
AC50 [1]: 22.4 µM [rising, single point]

COc1ccc(/C=C/C(=O)OCC(=O)Nc2ccc(Cl)c(S(=O)(=O)N(C)C)c2)cc1OC
AC50 [1]: 29.1 µM [falling, single point]

O=c1cc(O)c2sc3nc(-c4ccccc4)cc(C(F)(F)F)c3c2[nH]1
AC50 [1]: 5.8 µM [falling, full curve]

OC(CN1CCN(c2ccc(F)cc2)CC1)c1ccc(Cl)cc1 (stereo unspecified)
AC50 [1]: 1.58 µM [rising, partial curve]

Cc1cc(C(=O)N/N=C/c2ccncc2)c(C)o1
AC50 [1]: 11.2 µM [falling, partial curve]

Cc1ccc(CNC(=O)c2ccc(Cn3cc(-c4ccc(C)cc4)nc3-c3ccncc3)cc2)cc1
AC50 [1]: 35.5 µM [falling, single point]

COc1ccc(C(=O)Nc2ccc(-c3cn4ccsc4n3)cc2)cc1S(=O)(=O)N1CCOCC1
AC50 [1]: 15.8 µM [rising, partial curve, poor fit]

COC(=O)c1ccc(NC(=S)NCCc2ccccc2C)cc1
AC50 [1]: 5.8 µM [falling, partial curve]

Cc1cccn2c(=O)c(C(=O)NC3CC(C)CC(C)(C)C3)c(O)nc12 (stereo unspecified)
AC50 [1]: 3.66 µM [rising, full curve, poor fit]

O=C(Nc1ccon1)Nc1cc(Cl)ccc1Cl
AC50 [1]: 22.4 µM [rising, partial curve, poor fit]

Cc1ccc2nc(-c3ccccc3)oc(=O)c2c1
AC50 [1]: 1.78 µM [falling, full curve]

Cc1ccc2cc(C#N)c(N3CCCN(C(=O)c4cnccn4)CC3)nc2c1
AC50 [1]: 11.2 µM [rising, partial curve, poor fit]

OC1CCN(c2c3c(nc4cc(-c5ccc(Cl)cc5)nn24)CCC3)CC1
AC50 [1]: 5.8 µM [rising, partial curve]

N#CCCn1c(SCC(=O)c2c[nH]c3ccccc23)nc2ccccc21
AC50 [1]: 2.82 µM [falling, full curve, poor fit]

O=C(NCc1ccccc1)c1ccc(CS(=O)(=O)c2ccccc2)o1
AC50 [1]: 6.51 µM [falling, single point]
AC50 [2]: 3.26 µM [rising, partial curve, poor fit]

CCOc1ccc(/C=N/n2c(C3CCCCC3)n[nH]c2=S)cc1
AC50 [1]: 0.794 µM [rising, full curve, poor fit]

OCCN1CCN(Cc2cc(Cl)c3cccnc3c2O)CC1
AC50 [1]: 2.06 µM [falling, single point]
AC50 [2]: 20.6 µM [falling, single point]

FCCCOc1ccc(-c2nccc(-c3ccccn3)n2)cc1
AC50 [1]: 0.224 µM [rising, full curve, poor fit]

Cc1ccc(-c2cn(C[C@H]3CC[C@@H]([C@@H]4CC[C@H](Cn5cc(-c6ccc(C)cc6)nn5)O4)O3)nn2)cc1
AC50 [1]: 0.2 µM [falling, full curve, poor fit]

Cc1ccc(-c2cc(C(F)F)nc(NCC3CCCO3)n2)cc1 (stereo unspecified)
AC50 [1]: 7.31 µM [rising, partial curve, poor fit]

COc1ccc(CCN2CN(S(=O)(=O)c3ccccc3)c3nc4ccccc4nc32)cc1
AC50 [1]: 29.1 µM [falling, single point]

COc1cc(C(=O)OCC(=O)Nc2ccc(C)cc2)cc(OC)c1OC
AC50 [1]: 17.8 µM [falling, single point]

Cc1cc(C(=O)Nc2sc3c(c2C#N)CCCC3)no1
AC50 [1]: 29.1 µM [falling, single point]

CCCCCc1nnc(NC(=O)Cc2cccs2)s1
AC50 [1]: 8.2 µM [rising, partial curve]

O=C(Nc1cccnc1)c1cn(-c2ccccc2)nc1-c1cccs1
AC50 [1]: 4.47 µM [falling, partial curve, poor fit]

NS(=O)(=O)c1ccc(Nc2nc(-c3ccc(O)cc3)cs2)cc1
AC50 [1]: 0.92 µM [falling, full curve, poor fit]

COc1cc(C(=O)NC2(C(F)(F)F)NC(=O)N(CCCc3ccccc3)C2=O)cc(OC)c1OC (stereo unspecified)
AC50 [1]: 2.31 µM [rising, full curve]

Brc1ccccc1-c1nnc(SCc2nc3ccccc3s2)o1
AC50 [1]: 4.11 µM [rising, partial curve, poor fit]

Cc1noc(C)c1COC(=O)CCc1ccc(S(=O)(=O)N2CCCCC2)cc1
AC50 [1]: 0.1 µM [falling, full curve]

O=C(NC1CCCCC1)c1ccc2c(c1)N(Cc1cccc(Cl)c1)C(=O)c1ccccc1S2=O (stereo unspecified)
AC50 [1]: 0.794 µM [rising, full curve, poor fit]

CCc1cc(C(=O)N2CCCC(CNS(=O)(=O)c3cccs3)C2)n(C)n1 (stereo unspecified)
AC50 [1]: 5.62 µM [rising, single point]

CCOC(=O)C1(Cc2ccccc2C)CCCN(C(=O)c2ccc(COC)o2)C1 (stereo unspecified)
AC50 [1]: 28.2 µM [falling, single point]

Cc1ccc(C(N)=O)cc1S(=O)(=O)Nc1cccc(C)c1C
AC50 [1]: 0.00461 µM [falling, full curve, poor fit]

Cc1ccc(C(=O)NN2C(=O)/C(=C/c3cccn3C)SC2=S)cc1
AC50 [1]: 10.3 µM [falling, partial curve, poor fit]

Cc1ccccc1OCc1csc(N)n1
AC50 [1]: 35.5 µM [falling, single point]

Cc1cccc2sc(N(Cc3cccnc3)C(=O)COc3ccccc3)nc12
AC50 [1]: 35.5 µM [falling, single point]

O=C(NCCCl)C1Cc2c(ccc3ccccc23)O1 (stereo unspecified)
AC50 [1]: 35.5 µM [falling, single point]

O=C(N/N=C/c1c[nH]c2ccccc12)c1ccccc1Cl
AC50 [1]: 3.98 µM [falling, partial curve, poor fit]

Cc1ccc(-n2[nH]c(C)c(C=Nc3ccc(C)cn3)c2=O)cc1
AC50 [1]: 20.6 µM [falling, single point]

Cc1cc(C)c(NC(=O)NC(=O)C(Cl)(Cl)Cl)c(C)c1
AC50 [1]: 14.1 µM [falling, partial curve]

COc1ccc(-c2nc3ccccc3s2)cc1NC(C)=O
AC50 [1]: 2.24 µM [rising, full curve, poor fit] and 3.98 µM [rising, partial curve, poor fit]

Cc1ccc(NC(=O)N2CCC(C(=O)Nc3ccc(C)cc3C)CC2)cc1
AC50 [1]: 32.6 µM [rising, partial curve, poor fit]

COC(=O)c1ccc(/C=N/NC(=O)c2ccc3nc[nH]c3c2)cc1
AC50 [1]: 4.47 µM [falling, full curve, poor fit]

Cc1nn2cnnc2c(C)c1Cc1c(F)cccc1Cl
AC50 [1]: 1.78 µM [rising, partial curve]

CCCCCc1nnc(NC(=O)C2CCCO2)s1 (stereo unspecified)
AC50 [1]: 4.61 µM [rising, partial curve, poor fit]

O=C(O)COc1ccc(/C=C2\SC(=Nc3ccccc3)N(c3ccccc3)C2=O)cc1
AC50 [1]: 0.398 µM [falling, full curve, poor fit]

CCOC(=O)C1=C(c2ccccc2)NC(SCC(N)=O)=C(C#N)C1c1cccnc1 (stereo unspecified)
AC50 [1]: 29.1 µM [rising, single point]

COc1cc(-c2nnc(COc3ccc4ccccc4c3)o2)cc(OC)c1OC
AC50 [1]: 10 µM [falling, partial curve]

O=C(Nc1ccn(Cc2ccccc2F)n1)c1ccc(COc2cccc(Br)c2)cc1
AC50 [1]: 0.82 µM [rising, partial curve, poor fit]

CNC(=S)N(CCc1c(C)[nH]c2ccc(OC)cc12)Cc1ccco1
AC50 [1]: 11.2 µM [rising, partial curve, poor fit]

COc1ccc2cc1Oc1ccc(cc1)C[C@H]1c3cc(c(OC)cc3CCN1C)Oc1c(O)c(OC)cc3c1[C@H](C2)N(C)CC3
AC50 [1]: 17.8 µM [falling, partial curve, poor fit]
AC50 [2]: 10 µM [rising, partial curve, poor fit]

From PubChem BioAssay AID493014 (National Center for Advancing Translational Sciences (NCATS), 2011)
